Measured values reported in patent US20050026068A1, “Polycarbocyclic derivatives for modification of resist, optical and etch resistance properties” (priority 2001, published 2005).
At least one compound was matched to its structure with a doubt left.

Assays:
[1] = UV absorbance of PMMA films loaded with additive; assay type: physicochemical; conditions: additive 7.5% w/w of PMMA
Protocol: A quantity of a polyaromatic compound (i.e.compound (XI), Table 9), was added in part of this solution at a 7.5% w/w of the polymer concentration.
The solution was stirred at room temperature for a few hours and the polyaromatic compound was dissolved. Then, a small amount of the solution was used to spin coat a film on quartz substrate at 4000 rpm for 30 sec. The thickness of this film was measured by a profilometer and found 12250 Å. The absorption spectrum of the film was taken at vertical incidence.
The same procedure was repeated, using the initial PMMA solution this time. A new film was spun and its thickness was found 13000 Å. […]

[2] = Sublimation of additive from PMMA film on hotplate heating (absorption spectra); assay type: physicochemical; conditions: additive 7.5% w/w in PMMA film
Protocol: The same procedure was repeated for heating at 110° C., 130° C. and 160° C. The spectra taken each time were compared and the possible sublimation of the additive after the different thermal treatment procedures was calculated.
The following explanations apply to all tables. […] SUBL=temperature of sublimation.

SMILES	UV 193 nm (absorbance) [1]	UV 248 nm (absorbance) [1]	SUBL (temperature of sublimation) [2] [°C]
c1ccc2c(CNC34CC5CC(CC(C5)C3)C4)c3ccccc3cc2c1 [Compound XII, 1-(9-aminomethyl-anthryl)-adamantane]	0.26 /0.5 μm	0.86 /0.5 μm	130
c1ccc2c(CNC3CCCCC3NCc3c4ccccc4cc4ccccc34)c3ccccc3cc2c1 (stereo not drawn) [VIII, trans-1,2-Di-(9-aminomethyl-anthryl)-cyclohexane]	0.10 /0.5 μm	0.40 /0.5 μm	160
O=C(OCc1c2ccccc2cc2ccccc12)OCc1c2ccccc2cc2ccccc12 [V]	0.29 /0.5 μm	0.63 /0.5 μm	130
